This note sets out measurements from paper doi:10.1101/2022.02.11.480108.

The chains behind the UniProt entries cited, without tags or fusion partners. Where a name states a change or a piece, a line headed by the entry shows the natural chain unless it says otherwise. Residues count along the entry.
UniProt Q9Y697, 56-457, stated change not applied: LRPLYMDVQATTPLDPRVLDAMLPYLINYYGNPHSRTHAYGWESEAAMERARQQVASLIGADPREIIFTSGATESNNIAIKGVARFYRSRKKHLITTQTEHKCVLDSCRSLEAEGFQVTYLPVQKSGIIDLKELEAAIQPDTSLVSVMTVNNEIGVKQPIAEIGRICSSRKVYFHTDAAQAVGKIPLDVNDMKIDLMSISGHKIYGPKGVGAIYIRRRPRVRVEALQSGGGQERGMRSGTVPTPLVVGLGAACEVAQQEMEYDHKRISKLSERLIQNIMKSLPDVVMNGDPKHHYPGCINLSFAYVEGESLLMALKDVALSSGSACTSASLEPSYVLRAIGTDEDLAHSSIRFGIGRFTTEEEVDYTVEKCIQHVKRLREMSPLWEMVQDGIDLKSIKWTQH
UniProt Q9HD34, whole entry: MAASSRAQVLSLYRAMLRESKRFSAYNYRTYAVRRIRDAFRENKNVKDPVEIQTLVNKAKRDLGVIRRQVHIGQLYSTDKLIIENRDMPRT

These are yes or no findings as the source states them, for the method shown. Some entries that bind do so weakly or less than the wild type.

This assay concerns the target human cysteine desulfurase NFS1, mature form (NFS1Δ55) (human) (UniProt Q9Y697). Nature of the assay: co-purification on Ni-NTA.

As for “ISD11 (human LYR motif-containing protein 4) (from UniProt Q9HD34 1-91)”, the binding entry is reported as “binds”.
